Experimental data reported in the supplement of paper PMC3682954.
Structures can show the parent of a compound that is named as a salt. ± gives the standard deviation of the averaged measurements. This is one part of the list. Most values come without repeats; read them as rough.

Tested on: RAW 264.7
Assay: HMGB1-induced TNF-alpha production relative to HMGB1-stimulated control; higher = more TNF-alpha secretion (less inhibition)
Details: stimulus: HMGB1 5 ug/ml, 18 h
[1] = compound concentration: 1 ug/ml

| SMILES | HMGB1-induced TNF-alpha production (compound concentration: 3 uM) [%] | HMGB1-induced TNF-alpha production [1] [%] |
| --- | --- | --- |
| CCN(CC)CCCC(C)Nc1ccnc2cc(Cl)ccc12 (configuration not stated) | 89.2 ± 0.9 | – |
| CCN(CC)CCCC(C)Nc1ccnc2cc(Cl)ccc12 (configuration not stated) [Chloroquine] | 106 | – |
| CCN(CC)CCCC(C)Nc1ccnc2cc(Cl)ccc12 (configuration not stated) [Chloroquine diphosphate] | 72.3 ± 12 | – |
| NC(Cc1c[nH]c2cc(F)ccc12)C(=O)O (racemic) [6-Fluoro-DL-tryptophan] | – | 64.8 |
| Nc1ccc(S(=O)(=O)NC(=O)c2ccccc2)cc1 | 85.9 | – |
| Nc1ccc(S(=O)(=O)NC(=O)c2ccccc2)cc1 [Sulfabenzamide] | 88.4 | – |
| C[N+](C)(C)CCOP(=O)(O)OP(=O)([O-])OC[C@H]1O[C@@H](n2ccc(N)nc2=O)[C@H](O)[C@@H]1O [Cytidine 5'-diphosphocholine sodium salt hydrate] | 81.1 | – |
| C[N+](C)(C)CCOP(=O)(O)OP(=O)([O-])OC[C@H]1O[C@@H](n2ccc(N)nc2=O)[C@H](O)[C@@H]1O | 112 | – |
| CC(C)c1nc(N(C)S(C)(=O)=O)nc(-c2ccc(F)cc2)c1/C=C/[C@@H](O)C[C@@H](O)CC(=O)O | 89.3 | – |
| C=C(CC)C(=O)c1ccc(OCC(=O)O)c(Cl)c1Cl [Ethacrynic acid] | 44.5 | – |
| C=C(CC)C(=O)c1ccc(OCC(=O)O)c(Cl)c1Cl [Ethacrynic Acid] | 70.5 | – |
| C=C(CC)C(=O)c1ccc(OCC(=O)O)c(Cl)c1Cl | 43.3 | – |
| O=c1ccc2cc3ccoc3cc2o1 [Psoralen] | – | 70.8 |
| CN=c1nc(-c2ccccc2)n(-c2ccccc2)s1 | 110 | – |
| Nc1ncnc2c1ncn2[C@@H]1O[C@H](CO)C[C@@H]1O [3'-deoxydenosine] | 98.8 | – |
| O=C1NCCN1c1ncc([N+](=O)[O-])s1 [Niridazole] | 71.3 | – |
| C1N2CN3CN1CN(C2)C3 | 89.5 | – |
| C1N2CN3CN1CN(C2)C3 [Methenamine] | 96.5 | – |
| O=C(O)C1=C[C@@H](O)[C@@H](O)[C@H](O)C1 [Shikimic acid] | – | 74.3 |
| CCCCCN(C)CCC(O)(P(=O)(O)O)P(=O)(O)O [Ibandronate] | 86.7 ± 2.6 | – |
| CCCCCN(C)CCC(O)(P(=O)(O)O)P(=O)(O)O [Ibandronate sodium] | 97.9 | – |
| CNc1ncnc2c1ncn2[C@@H]1O[C@H](CO)[C@@H](O)[C@H]1O [N6-methyladenosine] | 61.3 | – |
| CNc1ncnc2c1ncn2[C@@H]1O[C@H](CO)[C@@H](O)[C@H]1O [N6-Methyladenosine] | 110 | – |

Single records, as listed above:
CCN(CC)CCCC(C)Nc1ccnc2cc(Cl)ccc12 (configuration not stated) reads HMGB1-induced TNF-alpha production (compound concentration: 3 uM) [%]: 89.2 ± 0.9
CCN(CC)CCCC(C)Nc1ccnc2cc(Cl)ccc12 (configuration not stated) [Chloroquine] reads HMGB1-induced TNF-alpha production (compound concentration: 3 uM) [%]: 106
C=C(CC)C(=O)c1ccc(OCC(=O)O)c(Cl)c1Cl [Ethacrynic acid] reads HMGB1-induced TNF-alpha production (compound concentration: 3 uM) [%]: 44.5
Nc1ccc(S(=O)(=O)NC(=O)c2ccccc2)cc1 [Sulfabenzamide] reads HMGB1-induced TNF-alpha production (compound concentration: 3 uM) [%]: 88.4

Next part:

| SMILES | HMGB1-induced TNF-alpha production (compound concentration: 3 uM) [%] | HMGB1-induced TNF-alpha production [1] [%] |
| --- | --- | --- |
| OCC(O)CN1CCN(c2ccccc2)CC1 (racemic) [Dropropizine (R,S)] | 86.6 | – |
| CC(C)(C)C(=O)OCOC(=O)[C@@H]1N2C(=O)[C@@H](/N=C/N3CCCCCC3)[C@H]2SC1(C)C [Pivmecillinam hydrochloride] | 119 | – |
| N[C@@H](CC(=O)O)C(=O)O [L-Aspartic acid] | 91.4 | – |
| CCCCN1C[C@H](O)[C@@H](O)[C@H](O)[C@H]1CO [Miglustat] | 88.5 | – |
| C[C@@H](O)[C@H]1C(=O)N2C(C(=O)O)=C(SCCNC=N)C[C@H]12 [Imipenem monohydrate] | 73 | – |
| C[C@@H](O)[C@H]1C(=O)N2C(C(=O)O)=C(SCCNC=N)C[C@H]12 [Imipenem] | 59.4 ± 38 | – |
| c1ccc2c(c1)CCCC2C1=NCCN1 (configuration not stated) [Tetrahydrozoline hydrochloride] | 111.7 ± 1.1 | – |
| c1ccc2c(c1)CCCC2C1=NCCN1 (configuration not stated) | 85.2 | – |
| C=CC(N)CCC(=O)O (racemic) [(±)-gamma-Vinyl GABA] | 102 | – |
| C=CCc1ccc(O)c(OC)c1 | 85.5 | – |
| C=CCc1ccc(O)c(OC)c1 [Eugenol] | – | 78.1 |
| CC(=O)OCC(=O)NCCCOc1cccc(CN2CCCCC2)c1 | 96.9 | – |
| CC(=O)OCC(=O)NCCCOc1cccc(CN2CCCCC2)c1 [Roxatidine acetate] | 96.8 | – |
| CC(=O)OCC(=O)NCCCOc1cccc(CN2CCCCC2)c1 [Roxatidine Acetate HCl] | 73.2 | – |
| CCn1cc(C(=O)O)c(=O)c2cc(F)c(N3CCNCC3)nc21 | 109 | – |
| CCn1cc(C(=O)O)c(=O)c2cc(F)c(N3CCNCC3)nc21 [Enoxacin] | 99.8 ± 3.4 | – |
| CC1(C)CCC=[N+]1[O-] [5,5-Dimethyl-1-pyrroline-N-oxide] | 86.6 | – |
| CC1(C)CCC(NC(=O)[C@@H](N)CCC(=O)O)CC1 | 126 | – |
| Nc1ncnc2c1ncn2C1CC(O)C(CO)O1 (configuration not stated) [2'-Deoxyadenosine monohydrate] | – | 76.3 |
| Nc1ncnc2c1ncn2C1CC(O)C(CO)O1 (configuration not stated) [2'-Deoxyadenosine hydrate] | – | 79.3 |
| O=C(O)C1CCNCC1 [Isonipecotic acid] | 96.5 | – |
| O=C1NC(=O)C(c2ccccc2[N+](=O)[O-])=C1Nc1ccc(O)c(Cl)c1 | 80.4 | – |
| CCCc1ncc(C[n+]2ccccc2C)c(N)n1 | 77.2 | – |

| SMILES | HMGB1-induced TNF-alpha production (compound concentration: 3 uM) [%] | HMGB1-induced TNF-alpha production [1] [%] |
| --- | --- | --- |
| CCCc1ncc(C[n+]2ccccc2C)c(N)n1 [Amprolium hydrochloride] | 76.9 | – |
| Oc1ccc(C2CNCCc3c2cc(O)c(O)c3Cl)cc1 (configuration not stated) | 97.2 | – |
| Oc1ccc(C2CNCCc3c2cc(O)c(O)c3Cl)cc1 (configuration not stated) [Fenoldopam bromide] | 110 | – |
| Oc1ccc(C2CNCCc3c2cc(O)c(O)c3Cl)cc1 (configuration not stated) [Fenoldopam] | 99.4 | – |
| CC(C(=O)O)c1cccc(Oc2ccccc2)c1 (configuration not stated) [Fenoprofen] | 91.8 | – |
| CC(C(=O)O)c1cccc(Oc2ccccc2)c1 (configuration not stated) | 99.2 | – |
| CC(C(=O)O)c1cccc(Oc2ccccc2)c1 (configuration not stated) [Fenoprofen calcium salt dihydrate] | 90.6 | – |
| O=C(O)CN(CCN(CC(=O)O)CC(=O)O)CC(=O)O.[Na+].[Na+].[Na+] | 102 | – |
| C[C@@H]1CN(CCCn2c3ccccc3c3ccccc32)C[C@H](C)N1 [Rimcazole] | 107 | – |
| O=C1OC(c2ccc(O)cc2)(c2ccc(O)cc2)c2ccccc21 | 101 | – |
| COc1ccc2c(C)cc(=O)oc2c1 [7-methoxy-4-methylcoumarin] | – | 65.1 |
| CC(C)CSC[C@H]1O[C@@H](n2cnc3c(N)ncnc32)[C@H](O)[C@@H]1O [5'-Isobutylthio-5'-deoxyadenosine] | – | 49.7 |
| NCCc1c[nH]cn1 | 87.7 | – |
| NCCc1c[nH]cn1 [Histamine Dihydrochloride] | – | 78.7 |
| NCCc1c[nH]cn1 [Histamine dihydrochloride] | 81.8 | – |
| CCCOc1cc(N)ccc1C(=O)OCCN(CC)CC [Propoxycaine hydrochloride] | 116 | – |
| OC(Cn1cncn1)(Cn1cncn1)c1ccc(F)cc1F [Fluconazole] | 92.1 ± 11 | – |
| OC(Cn1cncn1)(Cn1cncn1)c1ccc(F)cc1F | 76.1 | – |
| Cc1cn([C@H]2C[C@H](O)[C@@H](C)O2)c(=O)[nH]c1=O [5'-Deoxythymidine] | – | 74.2 |
| Nc1[nH]cnc2ncnc1-2 | 93.7 | – |
| CC(=O)[C@@]1(O)CC[C@H]2[C@@H]3C=C(Cl)C4=CC(=O)[C@@H]5C[C@@H]5[C@]4(C)[C@H]3CC[C@@]21C | 80.3 | – |
| CO[C@@H]1[C@@H](O[C@@H]2O[C@H](C)[C@@H](O[C@H]3C[C@@](C)(O)[C@@H](OC(=O)CC(C)C)[C@H](C)O3)[C@H](N(C)C)[C@H]2O)[C@@H](CC=O)C[C@@H](C)[C@@H](O)/C=C/C=C/C[C@@H](C)OC(=O)C[C@H]1O | 119 | – |
| CC[N+](C)(C)c1cccc(O)c1 [Edrophonium chloride] | 84 ± 18 | – |

| SMILES | HMGB1-induced TNF-alpha production (compound concentration: 3 uM) [%] | HMGB1-induced TNF-alpha production [1] [%] |
| --- | --- | --- |
| CC[N+](C)(C)c1cccc(O)c1 | 103 | – |
| OCCN1CCN(CC/C=C2/c3ccccc3Sc3ccc(C(F)(F)F)cc32)CC1 [cis-(Z)-Flupenthixol dihydrochloride] | 61 | – |
| OC[C@H]1O[C@@H](n2cnc3c(O)nc(O)nc32)[C@H](O)[C@@H]1O [Xanthosine dihydrate] | – | 73.1 |
| Cc1cn[nH]c1 [4-Methylpyrazole hydrochloride] | 105 | – |
| Cc1cn[nH]c1 | 78.9 | – |
| CC(=O)OCC(=O)[C@@]1(O)CC[C@H]2[C@@H]3CCC4=CC(=O)C=C[C@]4(C)[C@@]3(Cl)[C@@H](Cl)C[C@@]21C | 38.2 | – |
| CC[N+](C)(CC)CCOC(=O)C1c2ccccc2Oc2ccccc21 [Methantheline bromide] | 133 | – |
| O=C(O)CN1C(=O)c2cccc3cccc(c23)C1=O | 90.7 | – |
| CCCCN(CCCC)CCCOC(=O)c1ccc(N)cc1 [Butacaine] | 96.6 | – |
| CCCCN(CCCC)CCCOC(=O)c1ccc(N)cc1 | 92.8 | – |
| Cc1ccc(C(=O)c2ccc(CC(=O)O)n2C)cc1 [Tolmetin sodium salt dihydrate] | 85.1 | – |
| Cc1ccc(C(=O)c2ccc(CC(=O)O)n2C)cc1 | 89.9 | – |
| Cc1ccc(C(=O)c2ccc(CC(=O)O)n2C)cc1 [Tolmetin] | 86.8 | – |
| COC(=O)Nc1nc2cc(C(=O)c3cccs3)ccc2[nH]1 | 83.6 | – |
| COC(=O)Nc1nc2cc(C(=O)c3cccs3)ccc2[nH]1 [Nocodazole] | 82 ± 9.6 | – |
| CC(=O)OCC(=O)[C@@]1(O)CC[C@H]2[C@@H]3CCC4=CC(=O)CC[C@]4(C)[C@@]3(F)[C@@H](O)C[C@@]21C | 43.8 | – |
| CC(=O)OCC(=O)[C@@]1(O)CC[C@H]2[C@@H]3CCC4=CC(=O)CC[C@]4(C)[C@@]3(F)[C@@H](O)C[C@@]21C [Fludrocortisone acetate] | 29.5 | – |
| O=C(O)CCCCCCCC(=O)O [Azelaic acid] | 99.1 | – |
| O=C(O)CCCCCCCC(=O)O | 90.6 ± 2.4 | – |
| CC(=Cc1ccc(C(=O)O)cc1)c1ccc2c(c1)C(C)(C)CCC2(C)C | 126 | – |
| NS(=O)(=O)c1cc(C2(O)NC(=O)c3ccccc32)ccc1Cl (configuration not stated) | 85.2 | – |
| NS(=O)(=O)c1cc(C2(O)NC(=O)c3ccccc32)ccc1Cl (configuration not stated) [Chlorthalidone] | 63.6 | – |
| CCCCCCCCCCCCCCCC(=O)OC/C=C(C)/C=C/C=C(C)/C=C/C1=C(C)CCCC1(C)C | 53.1 | – |
